The record followed here is publication PMC3598691.

No constants are given. Whether binding was seen depends on the method and setting. Binding seen in cells or lysates may run through a third protein. Some entries that bind do so weakly or less than the wild type. Sequences can lack the tags named with a protein.

For assay [1], the target named is T1, FLAG-dADA2bS (Drosophila melanogaster) (UniProt Q8I8V0).
T1 sequence: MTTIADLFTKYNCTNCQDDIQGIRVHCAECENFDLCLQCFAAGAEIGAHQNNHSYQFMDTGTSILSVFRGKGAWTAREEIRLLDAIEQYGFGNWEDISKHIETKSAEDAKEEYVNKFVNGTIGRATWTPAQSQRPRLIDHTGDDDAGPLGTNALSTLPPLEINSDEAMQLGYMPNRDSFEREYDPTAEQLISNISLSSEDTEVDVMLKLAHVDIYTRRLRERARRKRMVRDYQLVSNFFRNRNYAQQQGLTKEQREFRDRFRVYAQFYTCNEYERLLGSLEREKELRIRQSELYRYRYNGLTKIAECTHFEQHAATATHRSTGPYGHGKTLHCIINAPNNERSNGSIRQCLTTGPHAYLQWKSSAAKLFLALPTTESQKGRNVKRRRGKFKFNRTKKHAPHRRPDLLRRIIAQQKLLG
In words: co-IP; FLAG- and HA-tagged proteins co-expressed in S2 cells; lysis in RIPA buffer (150 mM NaCl, 1% NP-40, 0.5% SDS); lysates incubated overnight with anti-FLAG M2-agarose beads; five washes with TBST (400 mM NaCl, 1% Tween 20); blots with anti-HA and anti-FLAG.

The target of assay [2] is T2, FLAG-dADA2bL (Drosophila melanogaster) (UniProt Q8I8V0).
T2 sequence: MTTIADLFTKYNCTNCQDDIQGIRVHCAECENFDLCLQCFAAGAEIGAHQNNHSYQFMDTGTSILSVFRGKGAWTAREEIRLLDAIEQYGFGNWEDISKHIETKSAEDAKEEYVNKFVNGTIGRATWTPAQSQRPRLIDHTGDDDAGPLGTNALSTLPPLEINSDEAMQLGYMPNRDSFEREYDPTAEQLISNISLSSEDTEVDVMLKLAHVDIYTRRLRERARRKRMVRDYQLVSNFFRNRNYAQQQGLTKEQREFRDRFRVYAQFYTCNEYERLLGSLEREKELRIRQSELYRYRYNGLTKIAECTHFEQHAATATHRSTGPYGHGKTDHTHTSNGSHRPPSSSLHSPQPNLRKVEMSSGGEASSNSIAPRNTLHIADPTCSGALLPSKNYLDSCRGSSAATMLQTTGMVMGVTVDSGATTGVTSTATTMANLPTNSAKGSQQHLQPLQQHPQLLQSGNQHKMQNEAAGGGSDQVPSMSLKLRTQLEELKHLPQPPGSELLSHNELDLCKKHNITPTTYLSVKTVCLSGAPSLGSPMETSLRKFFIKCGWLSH
The assay is described as above.

B1: HA-dADA2bL (protein, UniProt Q8I8V0-1 1-555)
chain: MTTIADLFTKYNCTNCQDDIQGIRVHCAECENFDLCLQCFAAGAEIGAHQNNHSYQFMDTGTSILSVFRGKGAWTAREEIRLLDAIEQYGFGNWEDISKHIETKSAEDAKEEYVNKFVNGTIGRATWTPAQSQRPRLIDHTGDDDAGPLGTNALSTLPPLEINSDEAMQLGYMPNRDSFEREYDPTAEQLISNISLSSEDTEVDVMLKLAHVDIYTRRLRERARRKRMVRDYQLVSNFFRNRNYAQQQGLTKEQREFRDRFRVYAQFYTCNEYERLLGSLEREKELRIRQSELYRYRYNGLTKIAECTHFEQHAATATHRSTGPYGHGKTDHTHTSNGSHRPPSSSLHSPQPNLRKVEMSSGGEASSNSIAPRNTLHIADPTCSGALLPSKNYLDSCRGSSAATMLQTTGMVMGVTVDSGATTGVTSTATTMANLPTNSAKGSQQHLQPLQQHPQLLQSGNQHKMQNEAAGGGSDQVPSMSLKLRTQLEELKHLPQPPGSELLSHNELDLCKKHNITPTTYLSVKTVCLSGAPSLGSPMETSLRKFFIKCGWLSH
Turning to B1, the binding entry in assay [1] is on record as “binds”.

B2: HA-dADA2bS (protein, UniProt Q8I8V0-2 1-418)
chain: MTTIADLFTKYNCTNCQDDIQGIRVHCAECENFDLCLQCFAAGAEIGAHQNNHSYQFMDTGTSILSVFRGKGAWTAREEIRLLDAIEQYGFGNWEDISKHIETKSAEDAKEEYVNKFVNGTIGRATWTPAQSQRPRLIDHTGDDDAGPLGTNALSTLPPLEINSDEAMQLGYMPNRDSFEREYDPTAEQLISNISLSSEDTEVDVMLKLAHVDIYTRRLRERARRKRMVRDYQLVSNFFRNRNYAQQQGLTKEQREFRDRFRVYAQFYTCNEYERLLGSLEREKELRIRQSELYRYRYNGLTKIAECTHFEQHAATATHRSTGPYGHGKTLHCIINAPNNERSNGSIRQCLTTGPHAYLQWKSSAAKLFLALPTTESQKGRNVKRRRGKFKFNRTKKHAPHRRPDLLRRIIAQQKLLG
On to B2, for which, in assay [2], the binding entry is listed as “binds”.
